Screen size: about 53,000 sequences; about 3,700 (7%) were called active.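 Rule for the calls: active = gene knockdowns whose robust z-score for IL-1 alpha signal is at least 2 or at most -2, so actives lie on both sides; inactive = the rest.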 The list shows a part of the results.

For 107 sequences, z-score results are on record in PubChem BioAssay AID1508600 (Functional Genomics Laboratory (NCATS/FGL), 2020).

The nature of the experiment: Components of the Cytosolic LPS Sensing Pathway: Gene Identification via Genome-wide siRNA Screen.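 Note: robust z of the log signal after scaling to non-targeting control siRNA wells of the plate.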 The note with it: RAW264.7 macrophages, IL-1a HTRF, actives lie on both sides, screened at 100 nM (by protocol), cells primed 5 h with Pam3CSK4 first. An outline of the steps: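 Using IL-1a HTRF as read-out, the screen measured release from RAW264.7 cells after 48h siRNA knockdown (100 nM), 5 h Pam3CSK4 priming and 24 h cytosolic LipidA. Values were expressed relative to negative-control wells as robust z-scores.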
Regarding GGUCAGCGUGGAGUCAAUATT against Fam184b, the z-score is inactive: -1.92.

As for GGUAAGAACUGAAAUGCAUTT against Irf4, the z-score was inactive: -0.108. Then GGGAUUCCACGGAUACUGUTT against Rnase13, with inactive: -0.858; and GGGAAUGCAGCUAGGAAGATT against Paics, with inactive: 1.41; and CCAGUCACAUGAUCUUCGATT against Car10, with inactive: -0.892. Then GCUUGUGGCCAUAGCAGUUTT against Tmx3, with inactive: -1.36; and CCUCUACAUCCAGGAAUGATT against Map4k1, with inactive: -0.546. Under GGUUUACGCAGACUCAAGUTT against Trim14 stands inactive: -0.183. As to GGUAUGCCGCUAUCUGUCATT against Olfr99, the z-score is inactive: -0.86. Under GCCAGUGGAAAAUUGACGUTT against Baz2b stands inactive: 1.49; under GGAUUCUGAAUAUUUGCCATT against Glipr2, inactive: 0.378; under GCCGUUAAGUACUUAUAAATT against Agpat5, inactive: 0.437. Take GGACCUCCAGAGCAUACUGTT against Plscr2: the z-score is inactive: 1.55. Then GGGCCACUGUGUAAUUCAATT against Pcdhgc5, with inactive: 1.67.

For GGCUACCAAGCUCCUCUAUTT against Zfyve21, the z-score was inactive: -1.49. Under GGAUGUUCCAUAUGUGCUGTT against Arhgap31 stands inactive: -0.011; under GGCUGUCCACCGUAUGUAATT against Gpn1, inactive: -0.736; under GGUCCUCAUCGAAUUACACTT against Trip10, inactive: -1.14. Then GGCUGACAUAACAUUAAAATT against Bves, with inactive: -1.06. Under GGUCAAGAGUGCCCUAAAATT against Olfr398 stands inactive: -1.63.

As for GGAUCUUUUGAGAAAGAACTT against Adgrb3, the z-score is inactive: -0.399. As to GGGAGCAACCGGACAAUAUTT against Spa17, the z-score was inactive: -1.86.

Take GGAAAACACGUUCACUAUATT against Elp2: the z-score was inactive: 0.021.

With CCACAAAGGAAUUCAUGAGTT against Dhx16, the z-score was inactive: -1.41.

Take GGAUAUCUUCUCCUAUUUUTT against Ncbp3: the z-score was inactive: 0.387. Then GCCACACGACAUGUGAUUCTT against C2cd4c, with inactive: -0.0403. Under GGGUGAACUCGGAUUGCCUTT against Col23a1 stands inactive: 1.23. In the case of CGAUCUGUGAUUGAACCACTT against Pak1, the z-score is inactive: -0.0456. For the sequence GGAAAUAACAAGUUUUCCATT against Exog, the z-score is inactive: 1.49.

As to GGGAAAGCAUCGUAGACUCTT against Eid2, the z-score was inactive: 0.0738. Under GGACCACUCCAAGAGUUCUTT against Ncapd3 stands active: 2.88; under GGUUGGAUUCUCUUUGUCATT against Rbm8a, inactive: -1.95. Turning to GGUGACUUGUAAAGAUUUUTT against Dstn, the z-score was inactive: 0.234.

In the case of UCCUUACAUACGAUGUGAATT against Rab20, the z-score is inactive: -0.872. With GCUUCGAAACGGCCACAAGTT against Grb7, the z-score is inactive: 1.07. Regarding GCUACUGGUCAAUCUGUUCTT against Ifna2, the z-score was inactive: 0.876. GGAUGUCUUCAGCUUCAGGTT against Olfr992: the z-score is inactive: 1.48. With GCGGAAGCGUGAAUCCAAATT against Tigd3, the z-score was active: 3.13.

As for GGAGGAUCGGAAAAAAGCUTT against Ccdc9, the z-score was inactive: -0.938.

With GGACUUUGACUUAUCAAAUTT against Kctd11, the z-score was inactive: 1.31.

As to GCCUAUGUUAAAAUACUGGTT against Scgb2b27, the z-score is inactive: 0.538.

Turning to GGAGAAAAAAGCUAUGACUTT against Zfp120, the z-score is inactive: -0.0683. Then CGCAGGAACACCGAUGUAUTT against Agpat5, with inactive: -1.15. Under GGAACAGAAACUGAAGGAUTT against Clip2 stands inactive: 1.17.

Take GGUGAAGAGAGGUUUUUUUTT against St8sia2: the z-score was inactive: 1.12. Regarding GCUUUGUCACUACCACUGUTT against Olfr1329, the z-score was inactive: 0.256. Under CGACUUUAAUCAGAGGGCATT against Slc16a3 stands inactive: 0.834; under GCCAGGAUACUAAGUGUUUTT against Jpt2, inactive: 1.05. In the case of GGACAUUUGAUGACAGUGCTT against Thbd, the z-score was inactive: -1.43. Then CGCGUCUGUGAAGACCUGUTT against P2rx4, with inactive: -1.24; and GGUGGUUCUGGUGUACAGUTT against Nxf1, with inactive: -1.98; and GCAAGCAUGCUCAUAAAGATT against Cast, with inactive: -0.142.

CGCAAACAAACCUUAACAGTT against Maneal: the z-score was active: 2.21.

For GGAAACCUGAUAGAAGAGCTT against Dctn6, the z-score was inactive: 0.967. Under GCUGAGAAGUGGUAUCUAATT against Lztfl1 stands inactive: -0.33; under GGAUCUAUUCUCUCUGAUGTT against Prune2, inactive: 1.03; under GGAGUGUAAGGAAUUUAGCTT against Eid3, inactive: 0.171. Under GGCCAGCAGAUGAAUACGATT against Shd stands inactive: -1.2; under GGCGAAAUGGUAAACCGAGTT against Adgrg2, inactive: 0.0183. Under GCCUGUAUAGAUGCUAUUCTT against Setd1a stands inactive: -0.894; under GGAACUAUGGAGAUGGGACTT against Tcf4, inactive: -0.695.

For the sequence GCUCAAGUGCUCGAAUGACTT against Vps11, the z-score was inactive: -1.48.

With CCACCUAAGCCUACAAUGATT against Papolb, the z-score was inactive: 0.262. Under ACAAAGUCGCCUUCUUCCGTT against Adgrf3 stands inactive: -0.706. Then AGAACGGAACCAUAGGGAATT against Cmc2, with inactive: -0.897; and GGGUCUCUUCAGUUUUUUATT against Srsf9, with inactive: 0.311.

GCGGUAUGGAAAAAGAGAUTT against Pyy: the z-score was inactive: -0.525. For the sequence GGCUCAGAAGAAAAUGGAUTT against Kcnk4, the z-score is inactive: 0.166. Then GGUGACUACUACAGGAAACTT against Hps1, with active: 2.3; and GGUUGGUCACCUAAUCCAGTT against Aldh2, with inactive: 0.523; and GGGAUACCAGCUGAAUUACTT against Inhbe, with inactive: -0.612. With GGAUGUGACUAGAAUCAUCTT against Shpk, the z-score was inactive: 0.625.

GGUCAGUUGAGAUGUUUUUTT against Pag1: the z-score is inactive: 0.346. Then GGUCCAUUCGGUACAAAAATT against Cfap20dc, with inactive: -1.23; and GGGAAGGAAUAUGAUGGGCTT against Sik3, with inactive: -0.704; and GGAACAGGCACAGAAAAUUTT against Abca12, with inactive: -1.68. Then GGGAUACGGUCCACACUAUTT against Arl1, with inactive: -0.674. Then GGUCAUCGGGAGGUUUGAATT against Nfkbil1, with inactive: -0.0141; and GGGAGAGACCCAAAAAGGGTT against Sh3pxd2a, with inactive: -0.672.

In the case of GGUAUUGGUUAAGUAUCACTT against Sumo3, the z-score is inactive: -0.377. Under GGAAUUUUCUGAGAUUCGGTT against Il20 stands inactive: -0.655. In the case of GCCACUUCACAGCAAGCUATT against Cdk2ap1, the z-score was active: 3.27. Regarding GGAGCAAGAUGAAGAAGAGTT against Ticam2, the z-score is active: -2.26.

For the sequence GCCCUUGUUACAGAUUCUCTT against Vmn1r179, the z-score is inactive: -0.614. For CGAGCAUCUGUUAUGUACATT against Olfr19, the z-score was inactive: 1.31. In the case of GGAGAUGCACAAAAGAAUATT against Slc35d1, the z-score is inactive: 0.697. In the case of GGAUCAUUUCAAAACACACTT against Kcnh1, the z-score was inactive: -0.0204. Then GGGUAUUUUACCACUACUUTT against Psg23, with inactive: 0.32; and CCCGAGAACAUCUUGUACGTT against Rps6ka4, with active: 2.69; and GGAUUUAUAGACAAGUUCUTT against Gapt, with inactive: 1.26. Under GGAACUGAGGUUUUUAAAGTT against Tnks stands inactive: -0.621; under GCUAACAGCAUCCUUUUUGTT against Vmn1r50, inactive: -0.843. Then GGAGUAGAUCCAAAUGCACTT against Klhl4, with inactive: -0.436. GGCCGAGUAGCUGAUGAAATT against Dhx35: the z-score is inactive: -1.52. For CGACAUGCCUAUCUACAUGTT against Epha2, the z-score was inactive: -0.127. Under GCACCAGUGAUAUUUUUACTT against Tas2r110 stands inactive: -1.26; under GCGGACUACUAUGCUAAAGTT against Tgfb1, inactive: 1.08; under GGAAGAUGUGAAAUUGCUUTT against Dars2, active: 2.23. Then CCUAUAUCAACAUUAGAGATT against Atp13a4, with inactive: -0.207; and GGUGGAUCCAGACCAAGUCTT against Hdhd5, with inactive: 0.186; and CCACAGAAAUAUUUCUGUGTT against Olfr292, with inactive: -0.769.

Consider CCCACAUGUUGUCUGUAUUTT against Opn3, for which the z-score is inactive: -1.17. GGAUGAUGAUGAGGAAGGGTT against Cd2bp2: the z-score was inactive: 0.263. As for GGAAAUCAGAAGAAGAACATT against Hars, the z-score was active: 2.67.

Take GCUACCACAUUUAAACCUUTT against Mrps14: the z-score is inactive: 0.378.

In the case of GGGAAGAAGAAAAAGAUGATT against Peak1, the z-score is inactive: -0.506. Then GGGACUAACCUACUUAAUGTT against Metrnl, with inactive: 1.22.
